Experimental data reported in PMC5132261.
Results are given in words; binding and its absence hold for the method and conditions named. In cells and extracts the contact can be indirect. Some results given as binding are weak or reduced against the parent protein; the word gives no strength.

Chains of the proteins cited; added tags and fusions are not shown.
UniProt Q9JKS6: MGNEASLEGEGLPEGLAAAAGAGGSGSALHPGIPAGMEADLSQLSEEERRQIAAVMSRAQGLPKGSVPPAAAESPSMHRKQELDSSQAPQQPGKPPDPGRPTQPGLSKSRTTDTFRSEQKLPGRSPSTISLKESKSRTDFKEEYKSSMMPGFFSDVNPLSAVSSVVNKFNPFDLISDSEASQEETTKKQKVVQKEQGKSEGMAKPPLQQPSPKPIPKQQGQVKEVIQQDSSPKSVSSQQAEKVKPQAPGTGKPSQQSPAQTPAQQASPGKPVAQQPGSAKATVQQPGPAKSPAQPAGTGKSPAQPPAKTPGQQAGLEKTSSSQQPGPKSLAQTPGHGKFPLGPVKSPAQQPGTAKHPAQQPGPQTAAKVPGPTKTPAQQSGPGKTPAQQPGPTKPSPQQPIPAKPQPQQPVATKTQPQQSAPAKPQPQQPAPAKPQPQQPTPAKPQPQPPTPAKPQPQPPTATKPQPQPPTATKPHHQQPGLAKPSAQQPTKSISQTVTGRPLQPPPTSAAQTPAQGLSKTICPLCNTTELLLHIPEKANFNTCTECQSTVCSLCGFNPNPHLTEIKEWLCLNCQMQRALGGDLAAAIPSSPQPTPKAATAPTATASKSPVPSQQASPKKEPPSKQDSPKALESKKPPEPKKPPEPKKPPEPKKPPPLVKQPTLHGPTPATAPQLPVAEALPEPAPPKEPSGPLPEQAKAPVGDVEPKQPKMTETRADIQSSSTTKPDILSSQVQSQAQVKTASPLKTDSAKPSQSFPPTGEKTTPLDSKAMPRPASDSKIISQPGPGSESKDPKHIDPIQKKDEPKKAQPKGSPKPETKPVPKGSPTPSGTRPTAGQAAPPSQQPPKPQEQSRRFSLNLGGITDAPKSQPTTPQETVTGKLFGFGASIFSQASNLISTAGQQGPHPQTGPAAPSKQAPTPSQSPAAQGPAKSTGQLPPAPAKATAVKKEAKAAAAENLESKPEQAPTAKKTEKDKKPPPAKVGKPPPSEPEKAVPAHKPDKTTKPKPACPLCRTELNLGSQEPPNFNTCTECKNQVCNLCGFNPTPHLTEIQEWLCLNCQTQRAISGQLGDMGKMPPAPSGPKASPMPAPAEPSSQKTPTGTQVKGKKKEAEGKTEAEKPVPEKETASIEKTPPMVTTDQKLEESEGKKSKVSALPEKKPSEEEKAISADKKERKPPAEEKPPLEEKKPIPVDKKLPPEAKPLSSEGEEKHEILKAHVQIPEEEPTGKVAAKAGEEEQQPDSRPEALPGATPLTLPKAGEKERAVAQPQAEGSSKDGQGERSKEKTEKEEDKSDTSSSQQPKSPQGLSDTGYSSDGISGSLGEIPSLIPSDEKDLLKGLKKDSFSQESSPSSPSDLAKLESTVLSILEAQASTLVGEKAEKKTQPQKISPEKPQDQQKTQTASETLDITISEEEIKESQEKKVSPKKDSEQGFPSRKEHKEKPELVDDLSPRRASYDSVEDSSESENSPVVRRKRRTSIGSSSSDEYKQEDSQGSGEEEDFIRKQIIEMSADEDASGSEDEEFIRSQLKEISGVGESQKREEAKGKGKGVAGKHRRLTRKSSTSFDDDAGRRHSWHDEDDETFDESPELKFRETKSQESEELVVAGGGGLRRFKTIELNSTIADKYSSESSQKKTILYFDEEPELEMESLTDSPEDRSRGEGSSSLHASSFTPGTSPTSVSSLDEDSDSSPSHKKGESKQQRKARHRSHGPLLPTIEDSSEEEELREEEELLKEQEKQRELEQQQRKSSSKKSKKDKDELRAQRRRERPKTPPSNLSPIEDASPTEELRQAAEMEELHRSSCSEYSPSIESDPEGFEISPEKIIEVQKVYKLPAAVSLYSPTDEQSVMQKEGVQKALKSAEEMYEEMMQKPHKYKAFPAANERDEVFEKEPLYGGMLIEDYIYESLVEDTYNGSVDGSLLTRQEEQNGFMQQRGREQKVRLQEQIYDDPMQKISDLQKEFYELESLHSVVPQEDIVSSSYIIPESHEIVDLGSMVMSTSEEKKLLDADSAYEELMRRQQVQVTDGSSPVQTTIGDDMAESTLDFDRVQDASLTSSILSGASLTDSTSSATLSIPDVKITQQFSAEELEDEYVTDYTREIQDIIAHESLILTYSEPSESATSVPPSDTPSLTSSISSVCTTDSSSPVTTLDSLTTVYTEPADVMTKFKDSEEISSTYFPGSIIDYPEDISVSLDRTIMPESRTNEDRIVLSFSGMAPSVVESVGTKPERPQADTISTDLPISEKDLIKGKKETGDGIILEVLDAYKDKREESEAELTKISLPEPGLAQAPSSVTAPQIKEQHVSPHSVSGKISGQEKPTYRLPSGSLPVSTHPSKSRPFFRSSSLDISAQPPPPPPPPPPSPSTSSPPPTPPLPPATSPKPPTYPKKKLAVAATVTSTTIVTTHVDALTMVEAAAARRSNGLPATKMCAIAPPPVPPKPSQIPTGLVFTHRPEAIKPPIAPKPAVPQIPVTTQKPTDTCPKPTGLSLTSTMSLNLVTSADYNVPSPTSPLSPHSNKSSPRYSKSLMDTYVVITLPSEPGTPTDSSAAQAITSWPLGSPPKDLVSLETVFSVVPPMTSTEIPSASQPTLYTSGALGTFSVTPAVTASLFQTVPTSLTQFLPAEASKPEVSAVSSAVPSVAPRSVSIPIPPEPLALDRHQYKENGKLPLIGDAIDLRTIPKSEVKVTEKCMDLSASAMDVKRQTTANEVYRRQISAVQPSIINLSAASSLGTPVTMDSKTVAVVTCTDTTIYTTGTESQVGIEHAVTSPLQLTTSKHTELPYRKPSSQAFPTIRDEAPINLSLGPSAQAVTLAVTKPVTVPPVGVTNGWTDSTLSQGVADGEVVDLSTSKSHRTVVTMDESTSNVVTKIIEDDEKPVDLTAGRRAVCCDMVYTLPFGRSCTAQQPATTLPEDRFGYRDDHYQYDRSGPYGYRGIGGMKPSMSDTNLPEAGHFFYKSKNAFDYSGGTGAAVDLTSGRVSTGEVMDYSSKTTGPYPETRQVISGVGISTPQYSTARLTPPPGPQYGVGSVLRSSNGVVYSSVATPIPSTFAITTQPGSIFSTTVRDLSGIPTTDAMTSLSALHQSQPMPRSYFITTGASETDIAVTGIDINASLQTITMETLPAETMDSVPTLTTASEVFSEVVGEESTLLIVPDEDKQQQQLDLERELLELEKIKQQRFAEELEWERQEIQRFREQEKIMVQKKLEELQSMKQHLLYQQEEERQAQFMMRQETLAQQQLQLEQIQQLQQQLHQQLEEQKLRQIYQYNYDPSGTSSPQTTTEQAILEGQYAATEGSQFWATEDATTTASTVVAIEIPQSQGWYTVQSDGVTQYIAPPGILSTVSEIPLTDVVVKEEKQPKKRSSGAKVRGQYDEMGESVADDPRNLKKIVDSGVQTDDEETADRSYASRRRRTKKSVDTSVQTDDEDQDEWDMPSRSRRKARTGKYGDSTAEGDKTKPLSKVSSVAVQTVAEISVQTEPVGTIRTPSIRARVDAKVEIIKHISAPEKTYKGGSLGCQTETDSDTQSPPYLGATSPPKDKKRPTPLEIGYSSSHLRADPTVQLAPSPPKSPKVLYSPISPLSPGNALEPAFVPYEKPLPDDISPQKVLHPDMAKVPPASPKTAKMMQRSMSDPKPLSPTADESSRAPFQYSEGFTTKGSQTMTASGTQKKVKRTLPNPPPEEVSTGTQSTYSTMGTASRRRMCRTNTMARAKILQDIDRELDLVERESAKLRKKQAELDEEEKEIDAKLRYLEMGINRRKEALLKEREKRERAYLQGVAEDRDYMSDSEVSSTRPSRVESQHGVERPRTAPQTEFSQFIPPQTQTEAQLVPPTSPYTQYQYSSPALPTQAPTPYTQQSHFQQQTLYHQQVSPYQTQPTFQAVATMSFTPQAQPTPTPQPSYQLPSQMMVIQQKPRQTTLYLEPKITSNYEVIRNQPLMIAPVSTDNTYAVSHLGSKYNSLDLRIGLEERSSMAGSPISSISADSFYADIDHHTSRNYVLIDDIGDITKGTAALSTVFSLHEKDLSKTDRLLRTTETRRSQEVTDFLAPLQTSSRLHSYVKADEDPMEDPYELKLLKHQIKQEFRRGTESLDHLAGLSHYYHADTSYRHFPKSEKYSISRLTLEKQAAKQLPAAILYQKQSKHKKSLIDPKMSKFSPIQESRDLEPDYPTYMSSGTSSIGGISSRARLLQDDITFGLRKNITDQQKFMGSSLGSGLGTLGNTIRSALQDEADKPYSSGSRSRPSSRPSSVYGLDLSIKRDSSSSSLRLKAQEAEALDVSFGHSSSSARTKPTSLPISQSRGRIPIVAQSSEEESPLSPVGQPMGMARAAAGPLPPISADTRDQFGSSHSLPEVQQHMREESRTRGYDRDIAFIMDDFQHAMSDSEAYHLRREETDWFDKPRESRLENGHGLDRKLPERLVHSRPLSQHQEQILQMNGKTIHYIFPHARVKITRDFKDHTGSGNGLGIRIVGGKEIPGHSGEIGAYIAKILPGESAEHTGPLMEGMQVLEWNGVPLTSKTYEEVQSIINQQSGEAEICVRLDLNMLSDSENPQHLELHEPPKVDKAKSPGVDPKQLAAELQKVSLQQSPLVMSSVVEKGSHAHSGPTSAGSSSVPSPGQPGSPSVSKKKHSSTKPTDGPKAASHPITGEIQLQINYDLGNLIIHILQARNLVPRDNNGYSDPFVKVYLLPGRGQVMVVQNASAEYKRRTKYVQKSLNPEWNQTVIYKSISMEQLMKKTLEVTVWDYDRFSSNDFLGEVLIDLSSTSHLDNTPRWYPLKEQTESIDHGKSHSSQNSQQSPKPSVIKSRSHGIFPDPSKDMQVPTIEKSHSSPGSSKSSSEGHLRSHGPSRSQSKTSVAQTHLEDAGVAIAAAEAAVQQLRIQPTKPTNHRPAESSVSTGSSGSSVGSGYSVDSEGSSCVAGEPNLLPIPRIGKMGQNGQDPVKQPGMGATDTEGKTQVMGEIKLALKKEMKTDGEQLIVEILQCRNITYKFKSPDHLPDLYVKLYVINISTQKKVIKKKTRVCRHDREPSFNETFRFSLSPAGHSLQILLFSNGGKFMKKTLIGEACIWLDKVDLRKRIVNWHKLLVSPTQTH

Biological target: Piccolo (rat (endogenous in brain)) (UniProt Q9JKS6)
Assay: co-IP; anti-Piccolo rabbit antibody or rabbit IgG, Protein A agarose; Triton X-100 (1%) solubilised light membrane fraction of immature (postnatal day 2-4) rat brain; 5 mM MES pH 7.0, 150 mM NaCl, 1 mM EDTA; Western blot

binding: binds
Substance: Bassoon (from UniProt O88778 1-3938)
